Article PMC4770304
Results are given in words; binding and its absence hold for the method and conditions named. In cells and extracts the contact can be indirect. Some binding calls cover weakened binding; strength is not graded here.

The chains behind the UniProt entries cited, without tags or fusion partners. Where a name states a change or a piece, a line headed by the entry shows the natural chain unless it says otherwise.
UniProt Q27J81: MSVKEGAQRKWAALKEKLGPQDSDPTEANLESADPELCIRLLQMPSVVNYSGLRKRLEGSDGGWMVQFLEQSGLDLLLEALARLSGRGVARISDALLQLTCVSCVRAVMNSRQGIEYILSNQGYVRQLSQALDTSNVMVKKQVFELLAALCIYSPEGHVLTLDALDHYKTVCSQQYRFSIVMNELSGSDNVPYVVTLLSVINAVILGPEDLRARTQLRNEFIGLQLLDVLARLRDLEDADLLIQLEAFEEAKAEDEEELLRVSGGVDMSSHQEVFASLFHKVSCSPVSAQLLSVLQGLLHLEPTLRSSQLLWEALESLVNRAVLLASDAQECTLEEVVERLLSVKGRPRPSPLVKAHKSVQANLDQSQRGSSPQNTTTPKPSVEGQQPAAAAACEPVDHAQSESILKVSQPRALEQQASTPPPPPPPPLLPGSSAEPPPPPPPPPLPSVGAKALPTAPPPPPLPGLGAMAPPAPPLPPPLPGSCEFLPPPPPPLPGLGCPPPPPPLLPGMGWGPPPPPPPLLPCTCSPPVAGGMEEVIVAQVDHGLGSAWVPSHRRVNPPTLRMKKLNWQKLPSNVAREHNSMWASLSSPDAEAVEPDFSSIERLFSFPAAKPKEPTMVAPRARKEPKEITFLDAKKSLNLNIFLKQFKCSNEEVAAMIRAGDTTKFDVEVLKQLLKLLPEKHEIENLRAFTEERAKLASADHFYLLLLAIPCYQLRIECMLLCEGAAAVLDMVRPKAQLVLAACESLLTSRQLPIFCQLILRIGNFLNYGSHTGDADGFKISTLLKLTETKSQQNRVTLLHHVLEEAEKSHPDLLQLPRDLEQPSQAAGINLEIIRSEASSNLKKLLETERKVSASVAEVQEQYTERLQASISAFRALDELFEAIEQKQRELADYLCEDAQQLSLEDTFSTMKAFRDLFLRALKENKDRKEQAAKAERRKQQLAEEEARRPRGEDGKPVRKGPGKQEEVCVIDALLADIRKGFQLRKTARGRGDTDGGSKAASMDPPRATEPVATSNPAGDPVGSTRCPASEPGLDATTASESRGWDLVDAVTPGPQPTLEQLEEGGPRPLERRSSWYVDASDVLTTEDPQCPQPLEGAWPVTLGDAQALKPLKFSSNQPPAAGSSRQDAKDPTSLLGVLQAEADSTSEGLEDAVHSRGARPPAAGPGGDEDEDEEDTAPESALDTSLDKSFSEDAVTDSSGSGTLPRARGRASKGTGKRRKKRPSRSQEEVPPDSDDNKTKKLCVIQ
UniProt P35080: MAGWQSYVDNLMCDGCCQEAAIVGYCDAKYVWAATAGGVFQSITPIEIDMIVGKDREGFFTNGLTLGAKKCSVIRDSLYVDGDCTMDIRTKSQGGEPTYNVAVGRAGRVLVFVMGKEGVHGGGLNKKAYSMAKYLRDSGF

Columns and labels:
[1] = molecular target: GFP–INF2 (wild type) expressed in human podocytes (UniProt Q27J81); test: co-IP; GFP-Trap from differentiated podocytes expressing GFP–INF2; blots probed with F-actin capping protein and profilin 2 antibodies
[2] = molecular target: endogenous INF2 (human (endogenous in podocytes)) (UniProt Q27J81); test: co-IP; endogenous proteins: polyclonal INF2 antibody or rabbit Ig on protein A/G agarose, lysates of differentiated podocytes (10 mM Tris pH 7.5, 150 mM NaCl, 0.5 mM EDTA, 2% NP40, 10% glycerol), 1 h at 4°C
GFP–INF2–E184K = GFP–INF2–E184K (UniProt Q27J81); test: co-IP; HEK293T transfected with GFP–INF2 (WT or mutant), co-transfected with HACdc42QL or a control plasmid; GFP-Trap agarose, 1 h at 4°C (10 mM Tris pH 7.5, 150 mM NaCl, 0.5 mM EDTA, 2% NP40, 10% glycerol); blots
GFP–INF2–R218Q = GFP–INF2–R218Q (UniProt Q27J81); test: as above
GFP–INF2–S186P = GFP–INF2–S186P (UniProt Q27J81); test: as above
[3] = molecular target: GFP–INF2–WT expressed in HEK293T cells (UniProt Q27J81); test: as above

Measured: binding

profilin 2 (from UniProt P35080 1-140)
binds: all assays above
